Measured values taken from the supplement of paper PMC12823440, “Inhibitors supercharge kinase turnover through native proteolytic circuits” (Nature, 2025).
The other results are listed elsewhere or left out. The calls rarely recur for the same compound in another form.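 In K562 cells expressing nanoluciferase-fused kinases, luminescence was recorded at 4 h intervals between 2 and 18 h, normalized as percent of control with DMSO at 100% and a positive control at 0%. A significant (2 sigma) signal drop marks a time point as decreased. The authors' rule for a hit is not shown and takes in more than the number of time points.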

The chains behind the UniProt entries cited, without tags or fusion partners. Where a name states a change or a piece, a line headed by the entry shows the natural chain unless it says otherwise.
UniProt P23458: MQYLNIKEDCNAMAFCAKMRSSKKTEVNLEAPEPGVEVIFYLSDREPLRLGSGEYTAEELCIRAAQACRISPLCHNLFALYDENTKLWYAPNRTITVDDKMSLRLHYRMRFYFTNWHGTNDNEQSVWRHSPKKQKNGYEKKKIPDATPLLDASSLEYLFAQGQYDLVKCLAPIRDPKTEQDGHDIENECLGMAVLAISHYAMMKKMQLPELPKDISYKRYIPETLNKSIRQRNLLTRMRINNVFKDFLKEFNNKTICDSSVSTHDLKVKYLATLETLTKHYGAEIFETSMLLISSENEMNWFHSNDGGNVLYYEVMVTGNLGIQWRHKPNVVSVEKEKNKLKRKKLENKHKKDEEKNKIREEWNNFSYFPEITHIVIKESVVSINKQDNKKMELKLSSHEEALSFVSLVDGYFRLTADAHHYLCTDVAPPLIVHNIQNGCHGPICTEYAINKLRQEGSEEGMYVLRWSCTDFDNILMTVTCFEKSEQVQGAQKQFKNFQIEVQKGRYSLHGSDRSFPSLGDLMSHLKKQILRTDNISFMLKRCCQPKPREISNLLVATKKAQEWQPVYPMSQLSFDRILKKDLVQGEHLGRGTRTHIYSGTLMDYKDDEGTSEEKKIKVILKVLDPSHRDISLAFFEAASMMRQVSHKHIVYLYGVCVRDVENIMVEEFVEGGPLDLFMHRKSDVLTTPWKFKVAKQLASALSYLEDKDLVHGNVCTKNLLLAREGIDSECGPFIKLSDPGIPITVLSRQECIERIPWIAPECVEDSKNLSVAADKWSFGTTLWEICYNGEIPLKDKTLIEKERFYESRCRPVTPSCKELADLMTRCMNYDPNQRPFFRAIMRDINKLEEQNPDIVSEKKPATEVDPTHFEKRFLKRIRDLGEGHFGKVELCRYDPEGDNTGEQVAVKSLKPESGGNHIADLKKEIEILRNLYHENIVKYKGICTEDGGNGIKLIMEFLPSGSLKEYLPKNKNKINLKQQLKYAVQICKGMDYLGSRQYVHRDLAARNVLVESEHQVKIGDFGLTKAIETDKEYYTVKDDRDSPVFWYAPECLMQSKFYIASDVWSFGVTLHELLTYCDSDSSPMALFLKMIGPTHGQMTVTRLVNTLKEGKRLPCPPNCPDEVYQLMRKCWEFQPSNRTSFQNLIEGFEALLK

The compounds below were run against JAK1 (UniProt P23458) (assay: number of time points (of 5) at which kinase-Nluc abundance scored as decreased, DMSO-normalised (count); higher = more persistent destabilization). Details: K562; 2-18 h.
With `CN1CCN(c2cc(-c3ccncc3)c(-c3ccc4ccccc4c3)nn2)CC1` (10 µM) the “number of time points” value was 0.
`CC(O)(C#Cc1ccc2c(c1)N(c1nc(N)ncc1Cl)CC2)c1nccs1` (stereo unspecified) (2.5 µM) was tested, and the “number of time points” value was 0.
With `COc1ccc(Nc2ncc(C(F)(F)F)c(NC3CC3)n2)cc1OC` (10 µM) the “number of time points” value was 2.
In the case of `O=c1cc(N2CCOCC2)oc2c(-c3ccc4c(c3)OCCO4)csc12` (2.5 µM), the “number of time points” value is reported as 0.
With `N[C@@H]1CCCN(c2c(/C=C3\SC(=O)NC3=O)cccc2-c2ccccc2)C1` (10 µM) the “number of time points” value was 0.
In the case of `N#Cc1ccc(-c2cnc3[nH]cc(NC(=O)c4cccnc4)c3c2)cc1` (10 µM), the “number of time points” value is reported as 0.
In the case of `COc1ccc(Br)cc1NC(=O)Nc1cccc2c1ccn2Cc1ccnc(N)c1` (2.5 µM), the “number of time points” value is reported as 0.
For `COc1cc(N2CCOCC2)ccc1Nc1ncc(F)c(Nc2ccccc2NS(C)(=O)=O)n1` (10 µM), the “number of time points” value was 0.
For `COc1ccc(-c2cc(=O)c3c(OC)cc(OC)c(OC)c3o2)cc1` [6-Demethoxytangeretin] (10 µM), the “number of time points” value was 0.
With `COc1cc2c(cc1O)C[C@H]1c3cc(O)c(OC)cc3CC[N@@+]1(C)C2` [Phellodendrine] (10 µM) the “number of time points” value was 0.
In the case of `CO[C@H]1C[C@@H]2CC[C@@H](C)[C@@](O)(O2)C(=O)C(=O)N2CCCC[C@H]2C(=O)O[C@H]([C@H](C)C[C@@H]2CC[C@@H](OC(=O)C(C)(CO)CO)[C@H](OC)C2)CC(=O)[C@H](C)/C=C(\C)[C@@H](O)[C@@H](OC)C(=O)[C@H](C)C[C@H](C)/C=C/C=C/C=C/1C` [Temsirolimus] (2.5 µM), the “number of time points” value is reported as 0.
